# Part of at least one peptide drawing is inferred or uncertain, most often the ends. At least one compound was matched to its structure with a doubt left. Numbered stars: 1 amine (or outer) side, 2 acyl side, 3 side chain; on linkers, the order of the positions; unused ones are H or OH. Bridge positions count the residues as written; N and C are the ends. Square brackets hold non-standard residues; d marks the D form. Peptide text beside a SMILES is read from it. CO = O=C([*:1])[*:2]; Nlys = NCCCCNCC(=O)O
# Tested on: Human fibroblast M1 cells
# Assay: Nitric Oxide Assay in human fibroblast M1 cells
# Format: cell-based
# Protocol: FIGS. 17A and 17B show dose-response experiments of NO production rate induced by cyclic analogs. Human M1 fibroblasts were incubated with different concentrations of the listed cyclic peptides, or with 50 μM of positive (65-79*0401) or negative (65−79*0402) control peptides. NO production rates were determined using the fluorescent probe 4,5-diaminofluorescein diacetate (DAF-2DA) (See Ling et al., Arthritis Res Ther 2007, 9, R5; Ling et al., J. J Immunol 2007, 179, 6359; Ling et al., Arthritis Rheum 2006, 54, 3423).
# Nitric Oxide Assay. Human fibroblast M1 cells were plated at a density of 1×10^5 cells per well in 96-well plates the day prior to the Nitric Oxide assay. To determine the rate of NO production in fibroblast, cells were first loaded with 20 μM of the fluorescent NO probe 4,5-diaminofluorescein diacetate (DAF-2DA), incubated in the dark at 37° C. for 1 hour and washed in 100 μL of DMEM/phenol red-free medium. The fluorescence level was recorded every 5 minutes over a period of 500 minutes, using a Fusion αHT system (PerkinElmer Life Sciences) at an excitation wavelength of 488 nm and emission wavelength of 515 nm. The NO production rate is expressed as the mean±SEM fluorescence units per minute.
smiles,measurement,value
C[C@H](NC(=O)CN1CCCCNC(=O)NCCCCN(C(=O)[C@@H](N)Cc2c[nH]c3ccccc23)CC(=O)N[C@@H](CCC(N)=O)C(=O)N[C@@H](CCCCN)C(=O)N[C@@H](CCCNC(=N)N)C1=O)C(N)=O [c(HS4-4)] (H-W[Nlys]QKR[Nlys]A-NH2; linker 2-6 via CO),potency in activating NO production (in words),potent analogs
